Assay results as given in patent US12102644B2, “Compounds and methods of promoting myelination” (Case Western Reserve University, priority 2019, dated 2024).

Chains of the proteins cited; added tags and fusions are not shown.
UniProt P08912, whole entry: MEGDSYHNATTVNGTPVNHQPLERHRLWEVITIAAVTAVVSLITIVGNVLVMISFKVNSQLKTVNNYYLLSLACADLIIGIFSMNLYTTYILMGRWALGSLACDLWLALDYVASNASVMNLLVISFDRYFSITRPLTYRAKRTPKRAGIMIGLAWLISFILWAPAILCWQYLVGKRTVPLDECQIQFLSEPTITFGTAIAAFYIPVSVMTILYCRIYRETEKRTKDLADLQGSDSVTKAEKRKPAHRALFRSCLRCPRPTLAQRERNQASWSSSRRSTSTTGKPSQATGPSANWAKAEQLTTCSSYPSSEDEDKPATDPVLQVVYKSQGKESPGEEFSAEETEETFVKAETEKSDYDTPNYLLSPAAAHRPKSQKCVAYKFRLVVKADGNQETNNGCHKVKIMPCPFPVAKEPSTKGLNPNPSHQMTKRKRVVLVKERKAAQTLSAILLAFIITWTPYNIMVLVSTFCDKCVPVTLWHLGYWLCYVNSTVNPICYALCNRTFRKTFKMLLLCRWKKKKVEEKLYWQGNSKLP

Columns and labels:
[1] = test system: sterol levels in OPCs (cholesterol biosynthesis pathway); assay: GC/MS-based sterol profiling in OPCs; format: cell-based, mouse; conditions: 24 h treatment
[2] = molecular target: T1, EBP (Mus musculus, UniProt P70245); assay: EBP enzymatic assay (GC/MS); format: biochemical; conditions: small molecules 10 μM, zymostenol 25 μM, 2 h
T1 construct: active EBP was obtained from mouse microsomes; from tissue
T1 sequence (P70245 1-230): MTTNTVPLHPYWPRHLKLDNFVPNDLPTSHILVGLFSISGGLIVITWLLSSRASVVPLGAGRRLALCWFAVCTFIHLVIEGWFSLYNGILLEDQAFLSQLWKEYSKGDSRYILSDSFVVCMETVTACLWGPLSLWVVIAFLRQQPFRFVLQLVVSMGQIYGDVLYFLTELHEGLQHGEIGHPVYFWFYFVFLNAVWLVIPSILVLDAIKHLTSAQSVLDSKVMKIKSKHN

[3] = molecular target: muscarinic receptor M5 (Homo sapiens, UniProt P08912); conditions: 2 μM

- inhibition of EBP enzymatic activity [2]: clear inhibition
- inhibition of muscarinic receptor M5 isoform [3]: near-complete inhibition
SMILES: CN1CCC[C@@H]1CCO[C@](C)(c1ccccc1)c1ccc(Cl)cc1 [clemastine, Clemastine]
- accumulation of sterol intermediates in OPCs (enzyme inhibition in OPCs, e.g. EBP) [1]: induced accumulation of zymostenol and zymosterol and decreased basal sterol levels
